Source: article doi:10.1101/2021.06.18.448975

Experiments:
[1] = molecular target: GST-myosin VI SAH domain; assay: pull-down
[2] = molecular target: GST-myosin VI short tail (835-1295); assay: pull-down
[3] = molecular target: GST-myosin VI C-terminal region that starts from the MyUb; assay: pull-down
[4] = molecular target: GFP-myosin VI short full-length; assay: co-IP

B1: 3xFlag-OFD1 full length (1-1012) (protein, UniProt O75665 1-1012)
chain: MMAQSNMFTVADVLSQDELRKKLYQTFKDRGILDTLKTQLRNQLIHELMHPVLSGELQPRSISVEGSSLLIGASNSLVADHLQRCGYEYSLSVFFPESGLAKEKVFTMQDLLQLIKINPTSSLYKSLVSGSDKENQKGFLMHFLKELAEYHQAKESCNMETQTSSTFNRDSLAEKLQLIDDQFADAYPQRIKFESLEIKLNEYKREIEEQLRAEMCQKLKFFKDTEIAKIKMEAKKKYEKELTMFQNDFEKACQAKSEALVLREKSTLERIHKHQEIETKEIYAQRQLLLKDMDLLRGREAELKQRVEAFELNQKLQEEKHKSITEALRRQEQNIKSFEETYDRKLKNELLKYQLELKDDYIIRTNRLIEDERKNKEKAVHLQEELIAINSKKEELNQSVNRVKELELELESVKAQSLAITKQNHMLNEKVKEMSDYSLLKEEKLELLAQNKLLKQQLEESRNENLRLLNRLAQPAPELAVFQKELRKAEKAIVVEHEEFESCRQALHKQLQDEIEHSAQLKAQILGYKASVKSLTTQVADLKLQLKQTQTALENEVYCNPKQSVIDRSVNGLINGNVVPCNGEISGDFLNNPFKQENVLARMVASRITNYPTAWVEGSSPDSDLEFVANTKARVKELQQEAERLEKAFRSYHRRVIKNSAKSPLAAKSPPSLHLLEAFKNITSSSPERHIFGEDRVVSEQPQVGTLEERNDVVEALTGSAASRLRGGTSSRRLSSTPLPKAKRSLESEMYLEGLGRSHIASPSPCPDRMPLPSPTESRHSLSIPPVSSPPEQKVGLYRRQTELQDKSEFSDVDKLAFKDNEEFESSFESAGNMPRQLEMGGLSPAGDMSHVDAAAAAVPLSYQHPSVDQKQIEEQKEEEKIREQQVKERRQREERRQSNLQEVLERERRELEKLYQERKMIEESLKIKIKKELEMENELEMSNQEIKDKSAHSENPLEKYMKIIQQEQDQESADKSSKKMVQEGSLVDTLQSSDKVESLTGFSHEELDDSW
Question: For B1, which binding [1] is on record?
Answer: Its binding is “no binding”.

Question: And the binding [2]?
Answer: Its binding is “binds”.

Question: What about the binding [3] of the same binder?
Answer: Its binding is “binds”.

Question: What about the binding [4] of the same binder?
Answer: Its binding is “binds”.

No constants are given. Whether binding was seen depends on the method and setting. In cells and extracts the contact can be indirect. For some of these results: Binding can be weak; no strength is given. Where a sequence is shown, tags or fusion partners need not be part of it.
